The list shows a part of the results.
Assays:
Assay in all cases: glycan array binding signal (z-score within array); higher = stronger binding
Details in all cases: glycan notation: IUPAC condensed, linker removed
[1] = biological target: Neu5Ac(a2-3)Gal(b1-3)[Neu5Ac(a2-6)]GlcNAc(b1-3)[Fuc(a1-3)[Gal(b1-4)]GlcNAc(b1-6)]Gal(b1-4)Glc
In short: (§1)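 Glycan array data came from 3228 arrays in the Consortium for Functional Glycomics database, and only arrays with an available protein sequence were kept. Glycan names were put into IUPAC-condensed notation, and columns mapping to the same glycan were averaged. The binding signal is a within-array Z-score, averaged across arrays of one protein sequence run at different concentrations or buffers and across linkers. A negative Z-score can be read as non-binding.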

[2] = biological target: Neu5Ac(a2-3)Gal(b1-3)]Neu5Ac(a2-3)Gal(b1-4)]GlcNAc
In short: as §1

Neu5Ac(a2-3)Gal(b1-4)Glc = biological target: Neu5Ac(a2-3)Gal(b1-4)Glc
In short: as §1

[3] = biological target: Neu5Ac(a2-3)Gal(b1-4)GlcNAc
In short: as §1

[4] = biological target: Neu5Ac(a2-3)Gal(b1-4)GlcNAc(b1-2)Man
In short: as §1

[5] = biological target: Neu5Ac(a2-3)Gal(b1-4)GlcNAc(b1-2)Man(a1-3)[GlcNAc(b1-4)][Neu5Ac(a2-3)Gal(b1-4)GlcNAc(b1-2)Man(a1-6)]Man(b1-4)GlcNAc(b1-4)GlcNAc
In short: as §1

[6] = biological target: Neu5Ac(a2-3)Gal(b1-4)GlcNAc(b1-2)Man(a1-3)[Neu5Ac(a2-3)Gal(b1-4)GlcNAc(b1-2)Man(a1-6)]Man(b1-4)GlcNAc(b1-4)GlcNAc
In short: as §1

[7] = biological target: Neu5Ac(a2-3)Gal(b1-4)GlcNAc(b1-2)Man(a1-3)[Neu5Ac(a2-3)Gal(b1-4)GlcNAc(b1-2)Man(a1-6)]Man(b1-4)GlcNAc(b1-4)[Fuc(a1-6)]GlcNAc
In short: as §1

[8] = biological target: Neu5Ac(a2-3)Gal(b1-4)GlcNAc(b1-2)Man(a1-3)[Neu5Ac(a2-6)Gal(b1-4)GlcNAc(b1-2)Man(a1-6)]Man(b1-4)GlcNAc(b1-4)GlcNAc
In short: as §1

[9] = biological target: Neu5Ac(a2-3)Gal(b1-4)GlcNAc(b1-2)[Neu5Ac(a2-3)Gal(b1-4)GlcNAc(b1-4)]Man(a1-3)[GlcNAc(b1-4)][Neu5Ac(a2-3)Gal(b1-4)GlcNAc(b1-2)[Neu5Ac(a2-3)Gal(b1-4)GlcNAc(b1-6)]Man(a1-6)]Man(b1-4)GlcNAc(b1-4)GlcNAc
In short: as §1

[10] = biological target: Neu5Ac(a2-3)Gal(b1-4)GlcNAc(b1-2)[Neu5Ac(a2-3)Gal(b1-4)GlcNAc(b1-4)]Man(a1-3)[GlcNAc(b1-4)][Neu5Ac(a2-3)Gal(b1-4)GlcNAc(b1-4)Man(a1-6)]Man(b1-4)GlcNAc(b1-4)GlcNAc
In short: as §1

[11] = biological target: Neu5Ac(a2-3)Gal(b1-4)GlcNAc(b1-2)[Neu5Ac(a2-3)Gal(b1-4)GlcNAc(b1-6)]Man(a1-6)[Neu5Ac(a2-3)Gal(b1-4)GlcNAc(b1-2)Man(a1-3)][GlcNAc(b1-4)]Man(b1-4)GlcNAc(b1-4)GlcNAc
In short: as §1

[12] = biological target: Neu5Ac(a2-3)Gal(b1-4)GlcNAc(b1-3)Gal
In short: as §1

[13] = biological target: Neu5Ac(a2-3)Gal(b1-4)GlcNAc(b1-3)Gal(b1-3)GlcNAc
In short: as §1

[14] = biological target: Neu5Ac(a2-3)Gal(b1-4)GlcNAc(b1-3)Gal(b1-4)GlcNAc
In short: as §1

[15] = biological target: Neu5Ac(a2-3)Gal(b1-4)GlcNAc(b1-3)Gal(b1-4)GlcNAc(b1-2)Man(a1-3)[Neu5Ac(a2-3)Gal(b1-4)GlcNAc(b1-3)Gal(b1-4)GlcNAc(b1-2)Man(a1-6)]Man(b1-4)GlcNAc(b1-4)GlcNAc
In short: as §1

[16] = biological target: Neu5Ac(a2-3)Gal(b1-4)GlcNAc(b1-3)Gal(b1-4)GlcNAc(b1-3)Gal(b1-4)GlcNAc
In short: as §1

[17] = biological target: Neu5Ac(a2-3)Gal(b1-4)GlcNAc(b1-3)Gal(b1-4)GlcNAc(b1-3)Gal(b1-4)GlcNAc(b1-2)Man(a1-3)[Neu5Ac(a2-3)Gal(b1-4)GlcNAc(b1-3)Gal(b1-4)GlcNAc(b1-3)Gal(b1-4)GlcNAc(b1-2)Man(a1-6)]GalNAc
In short: as §1

[18] = biological target: Neu5Ac(a2-3)Gal(b1-4)GlcNAc(b1-3)Gal(b1-4)GlcNAc(b1-3)GalNAc
In short: as §1

[19] = biological target: Neu5Ac(a2-3)Gal(b1-4)GlcNAc(b1-3)Gal(b1-4)GlcNAc(b1-3)[Neu5Ac(a2-3)Gal(b1-4)GlcNAc(b1-3)Gal(b1-4)GlcNAc(b1-6)]GalNAc
In short: as §1

[20] = biological target: Neu5Ac(a2-3)Gal(b1-4)GlcNAc(b1-3)Gal(b1-4)GlcNAc(b1-6)[Gal(b1-3)]GalNAc
In short: as §1

[21] = biological target: Neu5Ac(a2-3)Gal(b1-4)GlcNAc(b1-3)Gal(b1-4)[Fuc(a1-3)]GlcNAc
In short: as §1

[22] = biological target: Neu5Ac(a2-3)Gal(b1-4)GlcNAc(b1-3)GalNAc
In short: as §1

[23] = biological target: Neu5Ac(a2-3)Gal(b1-4)GlcNAc(b1-3)[Neu5Ac(a2-3)Gal(b1-4)GlcNAc(b1-6)]GalNAc
In short: as §1

[24] = biological target: Neu5Ac(a2-3)Gal(b1-4)GlcNAc(b1-6)GalNAc
In short: as §1

[25] = biological target: Neu5Ac(a2-3)Gal(b1-4)GlcNAc(b1-6)[Gal(b1-3)]GalNAc
In short: as §1

[26] = biological target: Neu5Ac(a2-3)Gal(b1-4)GlcNAc(b1-6)[Neu5Ac(a2-3)Gal(b1-3)]GalNAc
In short: as §1

[27] = biological target: Neu5Ac(a2-3)Gal(b1-4)GlcNAc6S
In short: as §1

[28] = biological target: Neu5Ac(a2-3)Gal(b1-4)[Fuc(a1-3)]GlcNAc
In short: as §1

[29] = biological target: Neu5Ac(a2-3)Gal(b1-4)[Fuc(a1-3)]GlcNAc(b1-2)Man
In short: as §1

[30] = biological target: Neu5Ac(a2-3)Gal(b1-4)[Fuc(a1-3)]GlcNAc(b1-3)Gal
In short: as §1

[31] = biological target: Neu5Ac(a2-3)Gal(b1-4)[Fuc(a1-3)]GlcNAc(b1-3)Gal(b1-4)GlcNAc
In short: as §1

[32] = biological target: Neu5Ac(a2-3)Gal(b1-4)[Fuc(a1-3)]GlcNAc(b1-3)Gal(b1-4)[Fuc(a1-3)]GlcNAc(b1-3)Gal(b1-4)[Fuc(a1-3)]GlcNAc
In short: as §1

[33] = biological target: Neu5Ac(a2-3)Gal(b1-4)[Fuc(a1-3)]GlcNAc(b1-3)GalNAc
In short: as §1

[34] = biological target: Neu5Ac(a2-3)Gal(b1-4)[Fuc(a1-3)]GlcNAc(b1-6)[Gal(b1-3)]GalNAc
In short: as §1

[35] = biological target: Neu5Ac(a2-3)Gal(b1-4)[Fuc(a1-3)]GlcNAc(b1-6)[Neu5Ac(a2-3)Gal(b1-3)]GalNAc
In short: as §1

[36] = biological target: Neu5Ac(a2-3)Gal(b1-4)[Fuc(a1-3)]GlcNAc6S
In short: as §1

[37] = biological target: Neu5Ac(a2-3)Gal6S(b1-4)GlcNAc
In short: as §1

B1: Epa20 (Candida glabrata) (protein)
chain: MGSSHHHHHHSSGLVPRGSHMASSNIPNNYPLGCSNKYSGHLPGLKMELYSYNYVNPRHPDPQNPGKLDQLYDPNLLGTYECFDSSYKDINYPRVGYKSKTLIGRSDGVSGILNFNFVPPWGCMPQKGQLPPAYNFKSNITLSNFTMILFGYFKPKISGNHIFSLHGDDLIYLNFGAGNAFDCCRQESSADNFGNYQAFSLWGINWEKKTLTVYLDMNTYYPIRIFYNNRDYQAIFNFSFKTEFDSSPVIDFQDYFFFLRDIDGGCPGEV
[1]
  glycan array binding signal (z-score): 2.49
[2]
  glycan array binding signal (z-score): 1.33
Neu5Ac(a2-3)Gal(b1-4)Glc
  glycan array binding signal (z-score): 0.869
[3]
  glycan array binding signal (z-score): -0.159
[4]
  glycan array binding signal (z-score): 1.65
[5]
  glycan array binding signal (z-score): -0.439
[6]
  glycan array binding signal (z-score): 0.036
[7]
  glycan array binding signal (z-score): -0.585
[8]
  glycan array binding signal (z-score): -0.493
[9]
  glycan array binding signal (z-score): -0.119
[10]
  glycan array binding signal (z-score): -0.303
[11]
  glycan array binding signal (z-score): -0.472
[12]
  glycan array binding signal (z-score): -0.523
[13]
  glycan array binding signal (z-score): -0.463
[14]
  glycan array binding signal (z-score): -0.826
[15]
  glycan array binding signal (z-score): 0.404
[16]
  glycan array binding signal (z-score): -0.116
[17]
  glycan array binding signal (z-score): 2.75
[18]
  glycan array binding signal (z-score): 0.735
[19]
  glycan array binding signal (z-score): 4.06
[20]
  glycan array binding signal (z-score): 0.05
[21]
  glycan array binding signal (z-score): -0.027
[22]
  glycan array binding signal (z-score): 0.349
[23]
  glycan array binding signal (z-score): 2.82
[24]
  glycan array binding signal (z-score): 0.054
[25]
  glycan array binding signal (z-score): 1.14
[26]
  glycan array binding signal (z-score): -0.458
[27]
  glycan array binding signal (z-score): -0.036
[28]
  glycan array binding signal (z-score): -0.76
[29]
  glycan array binding signal (z-score): -0.141
[30]
  glycan array binding signal (z-score): -0.678
[31]
  glycan array binding signal (z-score): 1.25
[32]
  glycan array binding signal (z-score): -0.755
[33]
  glycan array binding signal (z-score): 2.98
[34]
  glycan array binding signal (z-score): 2.21
[35]
  glycan array binding signal (z-score): 1.62
[36]
  glycan array binding signal (z-score): -0.01
[37]
  glycan array binding signal (z-score): -0.429

— the supplement of paper PMC8728848
